The values that follow come from article doi:10.1101/2021.07.06.451253.

These are yes or no findings as the source states them, for the method shown. Binding seen in cells or lysates may run through a third protein. Binding can be weak; no strength is given. Tags and fused reporters may be left off the sequences shown.

In this experiment the target is T1, N’-FLAG-tagged Tanmp (tanycyte-associated ER membrane protein) (mouse) (UniProt Q6NSQ3).
T1 sequence: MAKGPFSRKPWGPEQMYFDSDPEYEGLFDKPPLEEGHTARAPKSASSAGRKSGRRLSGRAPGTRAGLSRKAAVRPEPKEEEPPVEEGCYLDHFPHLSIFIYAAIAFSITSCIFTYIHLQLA
The experiment can be described thus: co-IP.

On to “β-subunit of mitochondrial ATPase (ATPB)”, for which the binding result is “binds”.

“α-subunit of mitochondrial ATPase (ATPA)”: the binding entry is “binds”.
